Source: the supplement of paper PMC11732987, “Enantioselective OTUD7B fragment discovery through chemoproteomics screening and high-throughput optimisation” (Communications Chemistry, 2025)
The list shows a part of the results. The data scatter; read single values as rough.

Sequences of proteins named here, by UniProt entry; tags and fusion partners are left off. A change or cut given only in a name is not applied to a line headed by its entry.
UniProt Q9UJS0: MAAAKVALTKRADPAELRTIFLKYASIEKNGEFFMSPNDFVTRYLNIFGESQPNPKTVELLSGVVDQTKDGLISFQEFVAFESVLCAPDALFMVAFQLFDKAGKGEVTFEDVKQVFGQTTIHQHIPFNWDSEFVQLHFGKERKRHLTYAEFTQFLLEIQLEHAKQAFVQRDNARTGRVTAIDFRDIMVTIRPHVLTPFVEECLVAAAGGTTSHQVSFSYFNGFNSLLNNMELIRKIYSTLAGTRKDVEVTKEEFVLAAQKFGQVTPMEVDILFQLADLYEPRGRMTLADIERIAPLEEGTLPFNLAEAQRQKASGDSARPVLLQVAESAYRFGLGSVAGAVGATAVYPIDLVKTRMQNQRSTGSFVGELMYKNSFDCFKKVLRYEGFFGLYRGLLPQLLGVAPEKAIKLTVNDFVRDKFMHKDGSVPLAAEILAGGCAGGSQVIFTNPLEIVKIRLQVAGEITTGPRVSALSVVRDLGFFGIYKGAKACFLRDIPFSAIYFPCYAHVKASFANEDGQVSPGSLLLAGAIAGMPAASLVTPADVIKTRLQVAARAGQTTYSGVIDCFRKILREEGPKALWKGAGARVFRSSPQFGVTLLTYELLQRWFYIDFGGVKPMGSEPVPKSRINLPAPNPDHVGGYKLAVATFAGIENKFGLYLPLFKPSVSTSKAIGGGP
UniProt P09486: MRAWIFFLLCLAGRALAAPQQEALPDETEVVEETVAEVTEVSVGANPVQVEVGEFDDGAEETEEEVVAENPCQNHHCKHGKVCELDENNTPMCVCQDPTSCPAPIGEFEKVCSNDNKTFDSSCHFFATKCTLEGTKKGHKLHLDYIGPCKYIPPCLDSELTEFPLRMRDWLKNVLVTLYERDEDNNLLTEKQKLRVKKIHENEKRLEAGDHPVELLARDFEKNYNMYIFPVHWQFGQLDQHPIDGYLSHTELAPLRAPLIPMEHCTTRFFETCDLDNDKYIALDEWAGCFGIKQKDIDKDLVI
UniProt P41440: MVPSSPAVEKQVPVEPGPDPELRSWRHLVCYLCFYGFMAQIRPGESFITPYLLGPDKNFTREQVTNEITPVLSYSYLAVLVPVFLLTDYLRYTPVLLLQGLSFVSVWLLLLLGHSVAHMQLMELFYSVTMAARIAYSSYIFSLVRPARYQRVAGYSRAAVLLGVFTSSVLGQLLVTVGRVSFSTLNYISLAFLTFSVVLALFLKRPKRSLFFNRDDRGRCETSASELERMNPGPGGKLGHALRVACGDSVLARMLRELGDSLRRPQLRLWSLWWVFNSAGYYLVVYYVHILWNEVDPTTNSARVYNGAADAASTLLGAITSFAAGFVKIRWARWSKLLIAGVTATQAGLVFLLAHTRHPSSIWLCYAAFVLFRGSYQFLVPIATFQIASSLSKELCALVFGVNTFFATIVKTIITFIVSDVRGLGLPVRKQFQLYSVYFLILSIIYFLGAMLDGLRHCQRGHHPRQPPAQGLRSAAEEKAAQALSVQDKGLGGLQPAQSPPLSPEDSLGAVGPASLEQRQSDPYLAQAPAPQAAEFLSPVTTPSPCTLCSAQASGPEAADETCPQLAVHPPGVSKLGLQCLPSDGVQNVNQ
UniProt Q96DW6: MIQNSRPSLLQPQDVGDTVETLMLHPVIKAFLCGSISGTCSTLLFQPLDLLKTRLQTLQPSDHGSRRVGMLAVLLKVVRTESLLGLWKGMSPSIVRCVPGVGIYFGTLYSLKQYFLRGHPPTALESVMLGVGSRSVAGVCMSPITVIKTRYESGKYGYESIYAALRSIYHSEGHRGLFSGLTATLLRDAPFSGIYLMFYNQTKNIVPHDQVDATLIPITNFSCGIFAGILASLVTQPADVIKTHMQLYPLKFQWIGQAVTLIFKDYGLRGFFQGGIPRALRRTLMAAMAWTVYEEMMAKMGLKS
UniProt Q8IY18: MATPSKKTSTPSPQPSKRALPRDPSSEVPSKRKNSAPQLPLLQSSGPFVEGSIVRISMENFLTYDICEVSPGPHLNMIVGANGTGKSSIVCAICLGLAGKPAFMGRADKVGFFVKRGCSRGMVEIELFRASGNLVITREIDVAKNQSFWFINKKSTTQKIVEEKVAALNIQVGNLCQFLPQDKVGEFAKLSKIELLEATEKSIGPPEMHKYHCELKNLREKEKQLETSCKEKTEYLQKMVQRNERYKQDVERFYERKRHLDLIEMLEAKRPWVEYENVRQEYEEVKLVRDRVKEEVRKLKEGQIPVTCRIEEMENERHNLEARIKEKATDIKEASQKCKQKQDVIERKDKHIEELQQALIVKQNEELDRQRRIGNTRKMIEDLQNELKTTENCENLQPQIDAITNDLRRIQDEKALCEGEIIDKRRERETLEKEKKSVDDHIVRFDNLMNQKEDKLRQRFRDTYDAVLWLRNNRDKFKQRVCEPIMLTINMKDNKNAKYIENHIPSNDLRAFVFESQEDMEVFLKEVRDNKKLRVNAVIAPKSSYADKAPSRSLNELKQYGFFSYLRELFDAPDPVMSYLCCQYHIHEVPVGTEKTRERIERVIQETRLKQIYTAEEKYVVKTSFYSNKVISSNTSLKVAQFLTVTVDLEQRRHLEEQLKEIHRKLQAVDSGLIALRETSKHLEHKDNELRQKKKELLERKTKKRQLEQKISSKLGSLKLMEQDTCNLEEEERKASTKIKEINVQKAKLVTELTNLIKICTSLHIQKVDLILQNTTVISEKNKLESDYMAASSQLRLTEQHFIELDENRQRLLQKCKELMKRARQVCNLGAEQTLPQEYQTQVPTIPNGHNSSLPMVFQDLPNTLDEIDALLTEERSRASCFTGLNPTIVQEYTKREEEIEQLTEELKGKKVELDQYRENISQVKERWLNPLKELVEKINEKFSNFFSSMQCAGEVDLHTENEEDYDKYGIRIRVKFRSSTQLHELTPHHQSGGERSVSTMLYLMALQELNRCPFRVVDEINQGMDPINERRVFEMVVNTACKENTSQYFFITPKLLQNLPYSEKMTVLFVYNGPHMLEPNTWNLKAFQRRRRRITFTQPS
UniProt P00441, whole entry, looked up: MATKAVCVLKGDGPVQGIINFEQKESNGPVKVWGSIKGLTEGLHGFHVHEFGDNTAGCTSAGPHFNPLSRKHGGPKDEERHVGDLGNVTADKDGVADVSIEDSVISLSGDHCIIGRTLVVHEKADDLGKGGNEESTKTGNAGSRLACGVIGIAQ
UniProt O60504: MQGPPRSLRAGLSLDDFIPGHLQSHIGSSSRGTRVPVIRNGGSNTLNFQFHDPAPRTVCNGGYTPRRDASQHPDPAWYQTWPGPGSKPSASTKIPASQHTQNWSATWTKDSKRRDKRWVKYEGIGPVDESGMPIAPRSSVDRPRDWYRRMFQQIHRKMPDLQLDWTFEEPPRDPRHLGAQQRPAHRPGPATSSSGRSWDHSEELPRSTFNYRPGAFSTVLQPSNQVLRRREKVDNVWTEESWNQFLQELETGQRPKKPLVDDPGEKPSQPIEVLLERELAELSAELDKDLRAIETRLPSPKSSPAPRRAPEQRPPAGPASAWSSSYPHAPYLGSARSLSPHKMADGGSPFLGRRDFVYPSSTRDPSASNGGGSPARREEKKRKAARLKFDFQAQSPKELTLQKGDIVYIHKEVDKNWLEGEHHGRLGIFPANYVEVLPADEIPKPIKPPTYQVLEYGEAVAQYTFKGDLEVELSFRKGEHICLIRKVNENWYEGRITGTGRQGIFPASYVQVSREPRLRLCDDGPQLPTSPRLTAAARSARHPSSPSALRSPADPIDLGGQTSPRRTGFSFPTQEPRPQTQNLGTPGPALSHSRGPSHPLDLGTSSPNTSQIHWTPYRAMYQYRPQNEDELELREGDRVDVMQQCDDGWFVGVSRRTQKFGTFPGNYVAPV
UniProt Q15599: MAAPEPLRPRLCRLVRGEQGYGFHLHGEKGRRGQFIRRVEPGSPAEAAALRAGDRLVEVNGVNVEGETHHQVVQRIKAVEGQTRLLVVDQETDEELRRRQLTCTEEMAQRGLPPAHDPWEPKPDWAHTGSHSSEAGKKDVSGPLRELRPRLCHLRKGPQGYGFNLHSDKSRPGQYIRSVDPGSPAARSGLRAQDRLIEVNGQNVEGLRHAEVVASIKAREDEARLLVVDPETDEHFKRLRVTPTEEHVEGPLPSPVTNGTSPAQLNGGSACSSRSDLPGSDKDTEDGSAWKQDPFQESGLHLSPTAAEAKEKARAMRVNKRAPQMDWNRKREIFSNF
UniProt Q96AG3: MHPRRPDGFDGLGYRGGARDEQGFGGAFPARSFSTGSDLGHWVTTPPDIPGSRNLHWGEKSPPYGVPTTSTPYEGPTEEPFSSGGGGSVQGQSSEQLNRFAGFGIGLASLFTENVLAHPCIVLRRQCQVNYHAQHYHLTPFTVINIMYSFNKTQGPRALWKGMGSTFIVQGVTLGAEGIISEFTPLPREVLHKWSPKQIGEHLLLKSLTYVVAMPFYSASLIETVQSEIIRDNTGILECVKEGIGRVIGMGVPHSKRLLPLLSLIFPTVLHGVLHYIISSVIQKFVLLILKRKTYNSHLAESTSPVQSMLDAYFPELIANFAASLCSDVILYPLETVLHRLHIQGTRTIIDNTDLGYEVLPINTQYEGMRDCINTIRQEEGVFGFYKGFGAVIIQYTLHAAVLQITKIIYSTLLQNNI
UniProt P43007: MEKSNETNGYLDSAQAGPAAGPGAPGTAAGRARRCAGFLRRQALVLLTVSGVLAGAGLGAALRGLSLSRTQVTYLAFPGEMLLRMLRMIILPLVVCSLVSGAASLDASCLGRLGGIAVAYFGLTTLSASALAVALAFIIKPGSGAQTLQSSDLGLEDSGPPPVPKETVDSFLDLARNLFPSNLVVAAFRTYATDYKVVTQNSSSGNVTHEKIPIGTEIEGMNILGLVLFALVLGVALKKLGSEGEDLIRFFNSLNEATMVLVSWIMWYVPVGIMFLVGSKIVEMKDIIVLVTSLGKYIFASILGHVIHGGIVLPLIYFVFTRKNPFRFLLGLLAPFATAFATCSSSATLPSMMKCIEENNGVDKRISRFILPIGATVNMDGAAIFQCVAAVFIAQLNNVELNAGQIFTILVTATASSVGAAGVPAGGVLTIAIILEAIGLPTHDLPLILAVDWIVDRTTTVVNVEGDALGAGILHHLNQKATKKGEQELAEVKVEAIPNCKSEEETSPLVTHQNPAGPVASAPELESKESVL
UniProt Q5SXM2: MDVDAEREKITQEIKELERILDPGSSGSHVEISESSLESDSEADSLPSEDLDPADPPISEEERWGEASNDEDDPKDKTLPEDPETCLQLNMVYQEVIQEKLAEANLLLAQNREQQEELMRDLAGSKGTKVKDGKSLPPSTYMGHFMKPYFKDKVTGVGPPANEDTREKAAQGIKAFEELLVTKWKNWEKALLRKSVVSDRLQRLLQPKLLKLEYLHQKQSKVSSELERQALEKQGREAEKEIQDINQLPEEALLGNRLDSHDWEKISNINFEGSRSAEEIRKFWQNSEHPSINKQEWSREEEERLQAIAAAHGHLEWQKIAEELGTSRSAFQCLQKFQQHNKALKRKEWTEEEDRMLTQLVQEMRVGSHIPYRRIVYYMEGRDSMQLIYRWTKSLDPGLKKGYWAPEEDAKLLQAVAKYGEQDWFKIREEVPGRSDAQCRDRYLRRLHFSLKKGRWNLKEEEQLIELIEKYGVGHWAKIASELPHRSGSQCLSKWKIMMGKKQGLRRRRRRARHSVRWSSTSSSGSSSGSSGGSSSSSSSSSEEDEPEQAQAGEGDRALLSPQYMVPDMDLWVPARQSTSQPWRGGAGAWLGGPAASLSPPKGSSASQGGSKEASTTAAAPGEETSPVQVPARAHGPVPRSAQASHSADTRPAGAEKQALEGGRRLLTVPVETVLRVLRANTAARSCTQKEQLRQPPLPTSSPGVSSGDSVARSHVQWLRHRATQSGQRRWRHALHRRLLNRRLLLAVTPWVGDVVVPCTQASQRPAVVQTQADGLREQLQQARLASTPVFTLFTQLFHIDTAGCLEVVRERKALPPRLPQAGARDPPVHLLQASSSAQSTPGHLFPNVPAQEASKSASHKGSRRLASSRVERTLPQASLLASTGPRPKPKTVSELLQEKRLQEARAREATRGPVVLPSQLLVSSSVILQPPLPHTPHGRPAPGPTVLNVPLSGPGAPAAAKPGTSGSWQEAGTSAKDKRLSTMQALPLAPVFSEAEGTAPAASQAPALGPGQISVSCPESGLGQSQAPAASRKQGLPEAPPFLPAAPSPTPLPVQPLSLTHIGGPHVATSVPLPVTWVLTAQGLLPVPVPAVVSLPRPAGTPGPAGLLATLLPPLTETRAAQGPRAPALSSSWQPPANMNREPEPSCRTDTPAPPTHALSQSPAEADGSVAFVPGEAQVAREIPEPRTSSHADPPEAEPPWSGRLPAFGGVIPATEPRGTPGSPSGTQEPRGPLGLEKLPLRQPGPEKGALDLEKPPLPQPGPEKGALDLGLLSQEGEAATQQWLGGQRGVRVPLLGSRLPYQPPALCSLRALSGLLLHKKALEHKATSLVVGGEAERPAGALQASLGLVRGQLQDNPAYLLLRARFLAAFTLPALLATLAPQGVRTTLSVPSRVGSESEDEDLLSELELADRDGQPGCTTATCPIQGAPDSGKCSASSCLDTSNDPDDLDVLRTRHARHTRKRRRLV

compound: ClCC(=O)N[C@H]1CCCc2ccccc12; test: log2 mean competition ratio of IA-DTB cysteine labelling (DMSO/compound) (log2 ratio); higher = stronger cysteine engagement by compound; conditions: 50 µM; treatment time: 4 h; cell line lysate: HEK293T
Protocol: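 IA-DTB competitive cysteine chemoproteomics in HEK293T RIPA lysate. Lysates were treated with compound 29 or 30 at 50 or 200 µM for 4 h, then IA-DTB (500 µM, 1 h), trypsin-digested, NeutrAvidin-enriched and analysed by diaPASEF. Competition ratio = intensity DMSO / intensity compound (n=4 treated, n=64 DMSO); binding: mean log2 CR ≥ 1 and p ≤ 0.05 plus QC filters. Target is the cysteine site.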

| Target | log2 mean competition ratio |
| --- | --- |
| SKIV2L C247 (UniProt Q15477) | 0.354 |
| SLC25A13 C565 (UniProt Q9UJS0) | 0.0315 |
| SOWAHC C221 (UniProt Q53LP3) | -0.0273 |
| SPARC C265 (UniProt P09486) | 0.223 |
| SLC35F6 C36 (UniProt Q8N357) | -0.00218 |
| SLC9A3R1 C206 (UniProt O14745) | -0.0647 |
| SLC47A1 C466 | 0.615 |
| SLC19A1 C246 (UniProt P41440) | 0.455 |
| SLC25A38 C140 (UniProt Q96DW6) | -0.0845 |
| SMO C683 | -0.323 |
| SMC5 C881 (UniProt Q8IY18) | 0.564 |
| SLC25A52;SLC25A51 C166;(C166) | 0.00374 |
| SMARCC1 C520 (UniProt Q92922) | -0.05 |
| SOX2 C265 | -0.12 |
| SMG5 C174 (UniProt Q9UPR3) | -0.229 |
| SMU1 C298 (UniProt Q2TAY7) | 0.0814 |
| SOD1 C147 (UniProt P00441) | 0.505 |
| SMPD4 C579 (UniProt Q9NXE4) | -0.0418 |

| Target | log2 mean competition ratio |
| --- | --- |
| SNX29 C121 (UniProt Q8TEQ0) | -0.148 |
| SMARCAL1 C508 (UniProt Q9NZC9) | -0.395 |
| SORBS3 C521 (UniProt O60504) | 0.0923 |
| SMCHD1 C1710 (UniProt A6NHR9) | -0.0726 |
| SLC9A3R2 C103 (UniProt Q15599) | -0.192 |
| SLC39A10 C598 (UniProt Q9ULF5) | -0.372 |
| SLC25A46 C372 (UniProt Q96AG3) | -0.00956 |
| SMC4 C110 | 0.0219 |
| SNRPD2 C63 | 0.668 |
| SLC7A6OS C166 (UniProt Q96CW6) | -0.104 |
| SKA3 C20 (UniProt Q8IX90) | 0.15 |
| SORL1 C1549 (UniProt Q92673) | -0.374 |
| SLX4 C519 (UniProt Q8IY92) | -0.156 |
| SLC1A4 C355 (UniProt P43007) | -0.255 |
| SOX6 C152 (UniProt P35712) | 0.155 |
| SLC25A19 C268 (UniProt Q9HC21) | -0.133 |
| SMAD2 C70 (UniProt Q15796) | 0.0898 |

same assay, conditions: 200 µM; treatment time: 4 h; cell line lysate: HEK293T

| Target | log2 mean competition ratio |
| --- | --- |
| SKIV2L C247 (UniProt Q15477) | -0.133 |
| SLC25A13 C565 (UniProt Q9UJS0) | 0.0824 |
| SOWAHC C221 (UniProt Q53LP3) | 0.0223 |
| SLC35F6 C36 (UniProt Q8N357) | -0.1 |
| SLC9A3R1 C206 (UniProt O14745) | 0.0652 |
| SLC47A1 C466 | 0.198 |
| SLC19A1 C246 (UniProt P41440) | 0.431 |
| SLC25A38 C140 (UniProt Q96DW6) | 0.0805 |
| SMO C683 | -0.195 |
| SMC5 C881 (UniProt Q8IY18) | -0.0567 |
| SLC25A52;SLC25A51 C166;(C166) | 0.0177 |
| SMARCC1 C520 (UniProt Q92922) | -0.0196 |
| SOX2 C265 | 0.325 |
| SMG5 C174 (UniProt Q9UPR3) | 0.0423 |
| SMU1 C298 (UniProt Q2TAY7) | -0.134 |
| SOD1 C147 (UniProt P00441) | 0.163 |
| SMPD4 C579 (UniProt Q9NXE4) | 0.188 |
| SNX29 C121 (UniProt Q8TEQ0) | 0.0632 |

| Target | log2 mean competition ratio |
| --- | --- |
| SMARCAL1 C508 (UniProt Q9NZC9) | -0.16 |
| SORBS3 C521 (UniProt O60504) | -0.136 |
| SMCHD1 C1710 (UniProt A6NHR9) | 0.0385 |
| SLC9A3R2 C103 (UniProt Q15599) | 0.158 |
| SMARCD1 C339 (UniProt Q96GM5) | -0.234 |
| SNAPC4 C491 (UniProt Q5SXM2) | 0.704 |
| SLC39A10 C598 (UniProt Q9ULF5) | -0.381 |
| SLC25A46 C372 (UniProt Q96AG3) | -0.0142 |
| SMC4 C110 | 0.107 |
| SNRPD2 C63 | 0.105 |
| SLC7A6OS C166 (UniProt Q96CW6) | 0.237 |
| SKA3 C20 (UniProt Q8IX90) | -0.0551 |
| SLX4 C519 (UniProt Q8IY92) | -0.131 |
| SLC1A4 C355 (UniProt P43007) | 0.375 |
| SOX6 C152 (UniProt P35712) | 0.428 |
| SLC25A19 C268 (UniProt Q9HC21) | 0.0764 |
| SMAD2 C70 (UniProt Q15796) | 0.119 |
